# Measurements: the supplement of paper PMC4604168 (melanoma cell lines)
# Some of the results follow. Repeats are few or missing, and single values can be far off.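 Imaging used 1,536-well plates; nuclei positive for cleaved PARP by antibody were divided by total DNA-stained nuclei to yield the apoptosis fraction. Doses for screening kept most cells viable, and cell lines differ markedly in resting and induced cleaved-PARP levels.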
# Test system: MeWo
# Assay: cleaved PARP positive nuclei fraction relative to DMSO control; melanoma cells; higher = more apoptosis
# Settings: library dose: low library concentration; 72 h
row,Structure (SMILES),cleaved PARP positive nuclei fraction [%]
1,"O=C(Nc1cc(C(F)(F)F)cc(C(F)(F)F)c1)c1cc(Cl)ccc1O + O=C(Oc1ccc([N+](=O)[O-])cc1)N1CCC(C(O)(c2ccc3c(c2)OCO3)c2ccc3c(c2)OCO3)CC1 [JZL184] (first compound 0.016 µM, partner dose 1 µM)",162
2,"Cn1cc(C2=C(c3cn(C4CCN(Cc5ccccn5)CC4)c4ccccc34)C(=O)NC2=O)c2ccccc21 [Enzastaurin] + O=C(Oc1ccc([N+](=O)[O-])cc1)N1CCC(C(O)(c2ccc3c(c2)OCO3)c2ccc3c(c2)OCO3)CC1 [JZL184] (first compound 0.8 µM, partner dose 1 µM)",72.3
3,"N.N.[Cl][Pt][Cl] [cisplatin] + CO[C@@H]1[C@H](N(C)C(=O)c2ccccc2)C[C@H]2O[C@]1(C)n1c3ccccc3c3c4c(c5c6ccccc6n2c5c31)C(=O)NC4 [Midostaurin] (first compound 1.6 µM, partner dose 0.08 µM)",208
4,"CCN(CC)CCNC(=O)c1c(C)[nH]c(/C=C2\C(=O)Nc3ccc(F)cc32)c1C [sunitinib] + O=C(Oc1ccc([N+](=O)[O-])cc1)N1CCC(C(O)(c2ccc3c(c2)OCO3)c2ccc3c(c2)OCO3)CC1 [JZL184] (first compound 0.4 µM, partner dose 1 µM)",69.2
5,"N.N.[Cl][Pt][Cl] [cisplatin] + Oc1cc(-c2nc(-c3ccccc3)[nH]c2-c2ccncc2)ccc1Cl [L779450] (first compound 1.6 µM, partner dose 0.2 µM)",99.1
6,"Clc1ccc(Nc2nnc(Cc3ccncc3)c3ccccc23)cc1 [vatalanib] + O=C(Oc1ccc([N+](=O)[O-])cc1)N1CCC(C(O)(c2ccc3c(c2)OCO3)c2ccc3c(c2)OCO3)CC1 [JZL184] (first compound 2 µM, partner dose 1 µM)",125
7,"C[As](C)SC[C@H](NC(=O)CC[C@H](N)C(=O)O)C(=O)NCC(=O)O [Darinaparsin] + OCCn1cc(-c2cnc3nnn(Cc4ccc5ncccc5c4)c3n2)cn1 [PF04217903] (first compound 0.4 µM, partner dose 1 µM)",55.2
8,"C[C@@H](N)c1ccc(C(=O)Nc2ccnc3[nH]ccc23)cc1 + Cc1cc(SCc2sc(-c3ccc(C(F)(F)F)c(F)c3)nc2C)ccc1OCC(=O)O [GW0742] (first compound 0.4 µM, partner dose 2 µM)",94.4
9,"N.N.[Cl][Pt][Cl] [cisplatin] + Cn1cncc1[C@@](N)(c1ccc(Cl)cc1)c1ccc2c(c1)c(-c1cccc(Cl)c1)cc(=O)n2C [tipifarnib] (first compound 1.6 µM, partner dose 0.01 µM)",52.2
